# Reference: the supplement of paper PMC4604168 (melanoma cell lines)
# The list shows a part of the results. Single values are uncertain, as repeats are few or missing.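 The apoptosis fraction was the count of cleaved-PARP antibody-stained nuclei relative to all DNA-stained nuclei, imaged in 1,536-well plates. Screening doses were set so most cells survived, and baseline and induced cleaved-PARP levels vary greatly across cell lines.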
# Key:
# Assay in all cases: cleaved PARP positive nuclei fraction relative to DMSO control; melanoma cells; higher = more apoptosis
# Conditions in all cases: library dose: low library concentration; 72 h
# [1] = system: MZ2-MEL
# [2] = system: MeWo
# [3] = system: RPMI7951
# [4] = system: RVH-421
# [5] = system: SkMel28
# [6] = system: SkMel2
# [7] = system: SkMel30
# [8] = system: SkMel5
# [9] = system: UACC257
# [10] = system: UACC62
Structure (SMILES),cleaved PARP positive nuclei fraction [1] [%],cleaved PARP positive nuclei fraction [2] [%],cleaved PARP positive nuclei fraction [3] [%],cleaved PARP positive nuclei fraction [4] [%],cleaved PARP positive nuclei fraction [5] [%],cleaved PARP positive nuclei fraction [6] [%],cleaved PARP positive nuclei fraction [7] [%],cleaved PARP positive nuclei fraction [8] [%],cleaved PARP positive nuclei fraction [9] [%],cleaved PARP positive nuclei fraction [10] [%]
"COc1ccc(C2=N[C@@H](c3ccc(Cl)cc3)[C@@H](c3ccc(Cl)cc3)N2C(=O)N2CCNC(=O)C2)c(OC(C)C)c1 [Nutlin-3] + COc1ccc(-c2ccc3c(N4CCOCC4)nc(N4C[C@@H](C)O[C@@H](C)C4)nc3n2)cc1CO [KU0063794] (first compound 0.1 µM, partner dose 0.02 µM)",51.8,32,233,97.7,56.1,111,85.8,80.3,150,122
"C[C@]1(O)C[C@@H](c2nc(-c3ccc4ccc(-c5ccccc5)nc4c3)c3c(N)nccn32)C1 + Cn1cncc1[C@@](N)(c1ccc(Cl)cc1)c1ccc2c(c1)c(-c1cccc(Cl)c1)cc(=O)n2C [tipifarnib] (first compound 0.4 µM, partner dose 0.01 µM)",69.7,470,122,58.9,24.7,189,79.4,54.5,42.9,66.2
"C[C@@H](N)c1ccc(C(=O)Nc2ccnc3[nH]ccc23)cc1 + Cc1cc([N+](=O)[O-])ccc1NS(=O)(=O)c1cc(Cl)ccc1Cl [FH535] (first compound 0.4 µM, partner dose 1 µM)",56.9,184,106,234,299,21.5,110,84.5,97.1,213
"C[C@]1(O)C[C@@H](c2nc(-c3ccc4ccc(-c5ccccc5)nc4c3)c3c(N)nccn32)C1 + O=C(O)C(=O)Nc1sc2c(c1C(=O)O)CCNC2 [TCS401] (first compound 0.4 µM, partner dose 1.66667 µM)",305,94.6,229,45.6,50.5,118,290,107,106,689
"CCCCCCCCc1ccc(CCC(N)(CO)CO)cc1 [fingolimod] + COc1cc2c(Oc3ccc4[nH]c(C)cc4c3F)ncnc2cc1OCCCN1CCCC1 [cediranib] (first compound 2 µM, partner dose 0.4 µM)",41,63.5,92.3,37.8,61.9,98.2,145,99.1,74.7,151
"CC1(C)CCC(c2ccc(Cl)cc2)=C(CN2CCN(c3ccc(C(=O)NS(=O)(=O)c4ccc(N[C@H](CCN5CCOCC5)CSc5ccccc5)c(S(=O)(=O)C(F)(F)F)c4)cc3)CC2)C1 + O=C(O)C(=O)Nc1sc2c(c1C(=O)O)CCNC2 [TCS401] (first compound 0.4 µM, partner dose 1.66667 µM)",355,166,113,251,53.8,168,153,234,47.7,99.6
"C[C@@H](N)c1ccc(C(=O)Nc2ccnc3[nH]ccc23)cc1 + O=C(CCCCCCC(=O)Nc1ccccc1)NO [vorinostat] (first compound 0.4 µM, partner dose 0.08 µM)",289,150,83.1,121,155,146,156,150,629,371
"NC(=O)c1ccc(N(C(N)=O)c2c(F)cccc2F)nc1-c1ccc(F)cc1F + O=C(Nc1ccccc1)c1cc([N+](=O)[O-])ccc1Cl [GW9662] (first compound 0.4 µM, partner dose 2 µM)",175,65.1,146,75.5,37.6,67.5,240,97.5,96.9,153
"CC1(C)CCC(c2ccc(Cl)cc2)=C(CN2CCN(c3ccc(C(=O)NS(=O)(=O)c4ccc(N[C@H](CCN5CCOCC5)CSc5ccccc5)c(S(=O)(=O)C(F)(F)F)c4)cc3)CC2)C1 + COc1cc2c(Oc3ccc4[nH]c(C)cc4c3F)ncnc2cc1OCCCN1CCCC1 [cediranib] (first compound 0.4 µM, partner dose 0.4 µM)",189,52.1,199,56,54,91.1,90,91.3,219,61
"CCCCCCCCc1ccc(CCC(N)(CO)CO)cc1 [fingolimod] + CCc1ccc(CCOc2ccc(CC3SC(=O)NC3=O)cc2)nc1 [pioglitazone] (first compound 2 µM, partner dose 2 µM)",96.2,205,69.4,119,116,85.8,80.4,279,212,377
"C[C@@H](N)c1ccc(C(=O)Nc2ccnc3[nH]ccc23)cc1 + CCN(CC)CCCCNc1ncc2cc(-c3cc(OC)cc(OC)c3)c(NC(=O)NC(C)(C)C)nc2n1 [PD173074] (first compound 0.4 µM, partner dose 0.1 µM)",287,197,70.1,63.6,140,95.2,127,180,198,66.2
"NC1(c2ccc(-c3nc4ccn5c(=O)[nH]nc5c4cc3-c3ccccc3)cc2)CCC1 + CN(C)S(=O)(=O)c1ccc2c(c1)/C(=C/c1cc3c([nH]1)CCCC3)C(=O)N2 [SU6656] (first compound 0.4 µM, partner dose 0.4 µM)",78.9,61.8,101,116,96.9,99.9,82,197,58.4,93.4
"NC(=O)c1ccc(N(C(N)=O)c2c(F)cccc2F)nc1-c1ccc(F)cc1F + CCN(CC)CCCCNc1ncc2cc(-c3cc(OC)cc(OC)c3)c(NC(=O)NC(C)(C)C)nc2n1 [PD173074] (first compound 0.4 µM, partner dose 0.1 µM)",77.4,87.4,71.6,118,66.8,66.8,36.6,67.5,37.4,67.3
"C[C@]1(O)C[C@@H](c2nc(-c3ccc4ccc(-c5ccccc5)nc4c3)c3c(N)nccn32)C1 + COC(=O)c1sccc1S(=O)(=O)Nc1ccc(Nc2ccccc2)cc1OC [GSK0660] (first compound 0.4 µM, partner dose 1 µM)",91.8,66.9,103,181,22.7,23.4,47.5,87.7,56.5,77.7
"C[C@]1(O)C[C@@H](c2nc(-c3ccc4ccc(-c5ccccc5)nc4c3)c3c(N)nccn32)C1 + COc1ccc(COc2ccc(Cc3cnc(N)nc3N)cc2OC)cc1 [GW2580] (first compound 0.4 µM, partner dose 1 µM)",83.5,162,63.4,440,76.6,66.3,77,85,138,83.2
"Cn1sc(=O)n(Cc2ccccc2)c1=O + COC(=O)c1sccc1S(=O)(=O)Nc1ccc(Nc2ccccc2)cc1OC [GSK0660] (first compound 0.4 µM, partner dose 1 µM)",122,66.1,161,175,183,64.4,79.9,74,373,50.3
"Cn1sc(=O)n(Cc2ccccc2)c1=O + O=S(=O)(c1ccccc1)N(CC(F)(F)F)c1ccc(C(O)(C(F)(F)F)C(F)(F)F)cc1 [T0901317] (first compound 0.4 µM, partner dose 1.4 µM)",34.7,84.5,55.8,97.8,156,242,118,88.4,122,159
"CCCCCCCCc1ccc(CCC(N)(CO)CO)cc1 [fingolimod] + COc1cc2ncnc(Nc3ccc(Oc4ccccc4)cc3)c2cc1OC [SrcI1] (first compound 2 µM, partner dose 2 µM)",104,34.9,57.9,113,172,77.3,62.3,77.9,36.7,169
"C[C@]1(O)C[C@@H](c2nc(-c3ccc4ccc(-c5ccccc5)nc4c3)c3c(N)nccn32)C1 + CC(C)CCN1c2nc(Nc3cc(F)c(O)c(F)c3)ncc2N(C)C(=O)C1C [BID1870] (first compound 0.4 µM, partner dose 0.2 µM)",217,92.4,148,31.4,174,99,104,300,177,75.2
"Cn1sc(=O)n(Cc2ccccc2)c1=O + COc1cc2c(Oc3ccc4[nH]c(C)cc4c3F)ncnc2cc1OCCCN1CCCC1 [cediranib] (first compound 0.4 µM, partner dose 0.4 µM)",135,97.6,86.7,185,190,64.4,88.1,234,231,71.4
"CC1(C)CCC(c2ccc(Cl)cc2)=C(CN2CCN(c3ccc(C(=O)NS(=O)(=O)c4ccc(N[C@H](CCN5CCOCC5)CSc5ccccc5)c(S(=O)(=O)C(F)(F)F)c4)cc3)CC2)C1 + NC(=O)Nc1cc(-c2cccc(F)c2)sc1C(=O)N[C@H]1CCCNC1 [AZD7762] (first compound 0.4 µM, partner dose 0.02 µM)",324,121,228,55.5,124,178,93.7,420,601,132

# Not a retest: entries from further up.
Structure (SMILES),cleaved PARP positive nuclei fraction [1] [%],cleaved PARP positive nuclei fraction [2] [%],cleaved PARP positive nuclei fraction [3] [%],cleaved PARP positive nuclei fraction [4] [%],cleaved PARP positive nuclei fraction [5] [%],cleaved PARP positive nuclei fraction [6] [%],cleaved PARP positive nuclei fraction [7] [%],cleaved PARP positive nuclei fraction [8] [%],cleaved PARP positive nuclei fraction [9] [%],cleaved PARP positive nuclei fraction [10] [%]
"C[C@@H](N)c1ccc(C(=O)Nc2ccnc3[nH]ccc23)cc1 + O=C(CCCCCCC(=O)Nc1ccccc1)NO [vorinostat] (first compound 0.4 µM, partner dose 0.08 µM)",289,150,83.1,121,155,146,156,150,629,371
"NC(=O)c1ccc(N(C(N)=O)c2c(F)cccc2F)nc1-c1ccc(F)cc1F + O=C(Nc1ccccc1)c1cc([N+](=O)[O-])ccc1Cl [GW9662] (first compound 0.4 µM, partner dose 2 µM)",175,65.1,146,75.5,37.6,67.5,240,97.5,96.9,153
